In the assay the target is recombinant human TLR4 (hTLR4) (human) (UniProt O00206). Kind of assay: ELISA; 500 ng hTLR4 coated on 96-well plates; 5 μg SP-A in 10 mM HEPES pH 7.4, 0.15 M NaCl, 5 mM CaCl2, 2% fatty acid-free BSA, 37 °C, 5 h; detected with anti-human SP-A polyclonal antibody and HRP anti-rabbit IgG; background (vehicle) subtracted; both purified. Background: An ELISA detects its analyte on a solid surface through an enzyme-linked reagent.

Sequences of proteins named here, by UniProt entry; tags and fusion partners are left off. Residues count along the entry.
UniProt O00206, residues 24-631: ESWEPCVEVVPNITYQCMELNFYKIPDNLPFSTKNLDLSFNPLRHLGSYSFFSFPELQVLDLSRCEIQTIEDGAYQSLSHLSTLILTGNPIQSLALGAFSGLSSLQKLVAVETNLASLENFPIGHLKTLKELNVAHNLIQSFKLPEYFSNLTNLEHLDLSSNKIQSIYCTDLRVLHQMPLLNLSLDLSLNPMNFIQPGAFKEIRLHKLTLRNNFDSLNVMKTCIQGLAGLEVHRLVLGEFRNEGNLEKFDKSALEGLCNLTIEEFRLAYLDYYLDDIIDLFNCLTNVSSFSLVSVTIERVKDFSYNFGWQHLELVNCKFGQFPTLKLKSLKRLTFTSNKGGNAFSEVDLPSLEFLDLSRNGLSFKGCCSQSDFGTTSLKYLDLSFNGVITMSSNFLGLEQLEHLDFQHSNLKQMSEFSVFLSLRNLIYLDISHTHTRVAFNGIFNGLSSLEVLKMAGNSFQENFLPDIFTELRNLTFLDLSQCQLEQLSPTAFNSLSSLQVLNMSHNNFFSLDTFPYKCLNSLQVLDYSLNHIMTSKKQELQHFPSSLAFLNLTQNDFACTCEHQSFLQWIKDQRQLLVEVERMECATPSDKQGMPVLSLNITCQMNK
UniProt Q8IWL2, residues 21-248: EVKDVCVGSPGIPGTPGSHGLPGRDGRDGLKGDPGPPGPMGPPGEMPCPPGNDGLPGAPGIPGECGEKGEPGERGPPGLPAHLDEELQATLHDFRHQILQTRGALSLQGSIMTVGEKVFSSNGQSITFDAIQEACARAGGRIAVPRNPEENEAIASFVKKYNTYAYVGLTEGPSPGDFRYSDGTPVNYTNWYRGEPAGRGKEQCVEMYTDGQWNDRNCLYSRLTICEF

Results are given in words; binding and its absence hold for the method and conditions named. Some results given as binding are weak or reduced against the parent protein; the word gives no strength.

Regarding “recombinant human surfactant protein A (hSP-A), unmodified (from UniProt Q8IWL2 21-248)”, the binding result is reported as “binds”.
